From publication PMC7293217, “TECPR1 promotes aggrephagy by direct recruitment of LC3C autophagosomes to lysosomes” (Nature Communications, 2020)
Results are given in words; binding and its absence hold for the method and conditions named. Binding seen in cells or lysates may run through a third protein. A yes stands for co-enrichment or nearness to the bait. Other partners may have been found. For some assays here: A no says only that the protein was not detected with the bait. For some assays here: Tags and fused reporters may be left off the sequences shown.

Protein sequences, listed by entry. Tags and fused reporters are not part of them. Residues count along the entry.
UniProt O95166: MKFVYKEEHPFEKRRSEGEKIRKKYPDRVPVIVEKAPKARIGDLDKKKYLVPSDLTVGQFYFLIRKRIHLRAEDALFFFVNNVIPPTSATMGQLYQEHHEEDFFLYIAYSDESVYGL
UniProt P60520: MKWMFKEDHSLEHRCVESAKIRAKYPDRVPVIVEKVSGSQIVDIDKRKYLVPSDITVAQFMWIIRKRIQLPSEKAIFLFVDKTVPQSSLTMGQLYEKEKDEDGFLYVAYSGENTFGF
UniProt Q9BXW4, residues 1-126: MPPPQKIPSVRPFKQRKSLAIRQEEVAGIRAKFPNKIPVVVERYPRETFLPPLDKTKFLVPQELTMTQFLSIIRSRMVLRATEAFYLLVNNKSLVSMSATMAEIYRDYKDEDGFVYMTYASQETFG

What was measured:
[1] = molecular target: MycBioID-TECPR1 (human) (UniProt Q7Z6L1); assay: proximity labelling; BioID: HeLa TECPR1^KO cells cotransfected with MycBioID-TECPR1 (wt or W175A/I178A) and HA-tagged hATG8s, 50 uM biotin for 24 h, lysates precipitated with streptavidin beads, blot with anti-HA
[2] = molecular target: T1, MycBioID-TECPR1^W175A/I178A (human) (UniProt Q7Z6L1); assay: as above
T1 sequence: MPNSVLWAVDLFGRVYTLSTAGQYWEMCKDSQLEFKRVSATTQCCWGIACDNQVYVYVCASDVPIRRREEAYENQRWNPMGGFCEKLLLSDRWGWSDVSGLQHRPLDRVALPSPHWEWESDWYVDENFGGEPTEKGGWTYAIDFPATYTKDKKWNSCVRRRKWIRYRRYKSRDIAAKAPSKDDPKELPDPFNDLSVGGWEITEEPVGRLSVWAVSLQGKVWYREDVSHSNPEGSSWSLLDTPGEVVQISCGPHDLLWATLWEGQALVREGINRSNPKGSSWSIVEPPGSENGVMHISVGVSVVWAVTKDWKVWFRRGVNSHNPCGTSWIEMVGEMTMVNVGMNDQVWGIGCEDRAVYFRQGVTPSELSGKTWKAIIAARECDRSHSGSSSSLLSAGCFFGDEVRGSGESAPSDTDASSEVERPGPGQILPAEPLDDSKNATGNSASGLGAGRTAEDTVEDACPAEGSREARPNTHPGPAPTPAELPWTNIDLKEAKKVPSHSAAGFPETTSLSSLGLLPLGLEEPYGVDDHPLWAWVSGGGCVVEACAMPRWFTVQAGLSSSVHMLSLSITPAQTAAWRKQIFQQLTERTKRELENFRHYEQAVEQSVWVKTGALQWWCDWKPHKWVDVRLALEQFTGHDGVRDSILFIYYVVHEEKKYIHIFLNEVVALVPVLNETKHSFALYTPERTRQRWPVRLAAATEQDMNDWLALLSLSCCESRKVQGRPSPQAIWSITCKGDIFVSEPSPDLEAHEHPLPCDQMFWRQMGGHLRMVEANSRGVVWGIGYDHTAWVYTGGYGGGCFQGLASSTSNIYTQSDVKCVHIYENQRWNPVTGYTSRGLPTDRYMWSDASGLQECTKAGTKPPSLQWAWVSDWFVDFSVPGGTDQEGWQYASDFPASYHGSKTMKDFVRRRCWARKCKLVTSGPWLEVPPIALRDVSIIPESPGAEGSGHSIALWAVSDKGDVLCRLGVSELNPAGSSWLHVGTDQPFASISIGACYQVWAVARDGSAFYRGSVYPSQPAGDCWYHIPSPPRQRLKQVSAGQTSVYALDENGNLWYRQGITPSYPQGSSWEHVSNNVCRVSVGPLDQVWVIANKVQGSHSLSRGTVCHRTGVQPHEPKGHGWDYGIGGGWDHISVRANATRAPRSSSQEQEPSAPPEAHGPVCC

Substance | binding [1] | binding [2]
HA-GABARAP (from UniProt O95166 1-117) | no binding | –
HA-GABARAPL2 (from UniProt P60520 1-117) | no binding | –
HA-LC3A (from UniProt Q9H492 1-121) | no binding | –
HA-LC3C (from UniProt Q9BXW4 1-126) | binds | binds weakly
